Test results taken from publication PMC4459675.
Results are given in words; binding and its absence hold for the method and conditions named. In cells and extracts the contact can be indirect. Some results given as binding are weak or reduced against the parent protein; the word gives no strength.

Amino acid sequences for entries named in this document (tags omitted). Residues count along the entry.
UniProt P08648, residues 42-1049: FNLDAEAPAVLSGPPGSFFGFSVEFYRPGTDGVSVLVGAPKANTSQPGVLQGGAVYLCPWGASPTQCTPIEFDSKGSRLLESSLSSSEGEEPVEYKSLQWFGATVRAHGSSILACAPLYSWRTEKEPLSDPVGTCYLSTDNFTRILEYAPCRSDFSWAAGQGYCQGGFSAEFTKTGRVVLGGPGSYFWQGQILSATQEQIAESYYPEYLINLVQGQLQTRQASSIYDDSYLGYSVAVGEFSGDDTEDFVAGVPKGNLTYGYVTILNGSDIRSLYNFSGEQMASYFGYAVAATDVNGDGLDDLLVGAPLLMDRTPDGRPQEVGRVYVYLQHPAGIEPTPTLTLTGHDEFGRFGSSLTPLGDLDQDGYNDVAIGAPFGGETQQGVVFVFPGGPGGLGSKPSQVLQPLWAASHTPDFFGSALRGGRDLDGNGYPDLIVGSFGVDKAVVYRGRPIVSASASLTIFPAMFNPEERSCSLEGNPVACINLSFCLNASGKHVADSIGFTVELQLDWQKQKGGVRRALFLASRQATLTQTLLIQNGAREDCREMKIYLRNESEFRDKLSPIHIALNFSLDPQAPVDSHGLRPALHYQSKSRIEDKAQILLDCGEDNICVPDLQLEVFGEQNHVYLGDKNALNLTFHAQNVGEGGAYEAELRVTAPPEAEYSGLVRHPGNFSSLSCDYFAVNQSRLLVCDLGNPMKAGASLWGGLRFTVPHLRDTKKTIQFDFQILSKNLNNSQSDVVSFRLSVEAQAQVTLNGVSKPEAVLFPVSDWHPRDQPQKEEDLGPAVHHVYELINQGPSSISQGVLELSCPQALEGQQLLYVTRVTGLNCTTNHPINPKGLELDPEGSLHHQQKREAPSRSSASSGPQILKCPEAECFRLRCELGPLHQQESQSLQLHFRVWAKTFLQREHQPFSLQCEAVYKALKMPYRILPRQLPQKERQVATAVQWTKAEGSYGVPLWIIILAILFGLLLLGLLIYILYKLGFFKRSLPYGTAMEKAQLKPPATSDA
UniProt O15551: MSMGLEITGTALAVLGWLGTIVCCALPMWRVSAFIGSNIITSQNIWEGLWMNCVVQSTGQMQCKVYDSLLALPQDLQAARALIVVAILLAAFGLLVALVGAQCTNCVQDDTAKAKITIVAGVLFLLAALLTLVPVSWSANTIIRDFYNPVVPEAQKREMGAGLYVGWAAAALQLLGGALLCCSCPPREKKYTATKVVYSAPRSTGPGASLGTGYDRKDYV
UniProt P15311: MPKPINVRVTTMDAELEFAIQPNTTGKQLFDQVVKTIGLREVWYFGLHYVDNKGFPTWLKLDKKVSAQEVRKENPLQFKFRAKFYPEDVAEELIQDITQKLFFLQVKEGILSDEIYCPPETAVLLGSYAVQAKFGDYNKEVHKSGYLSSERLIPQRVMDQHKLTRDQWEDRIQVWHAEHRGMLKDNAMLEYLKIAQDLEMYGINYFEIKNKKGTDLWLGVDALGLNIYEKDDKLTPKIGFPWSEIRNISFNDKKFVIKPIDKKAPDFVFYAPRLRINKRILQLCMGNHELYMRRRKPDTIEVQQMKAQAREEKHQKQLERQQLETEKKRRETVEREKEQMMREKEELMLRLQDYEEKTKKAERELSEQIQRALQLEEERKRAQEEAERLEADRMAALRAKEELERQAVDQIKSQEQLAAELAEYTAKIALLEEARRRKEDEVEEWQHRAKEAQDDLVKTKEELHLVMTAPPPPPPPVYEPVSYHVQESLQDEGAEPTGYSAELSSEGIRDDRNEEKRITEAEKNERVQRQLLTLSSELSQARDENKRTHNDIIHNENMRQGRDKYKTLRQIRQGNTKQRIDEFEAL

Key:
Experiment in all cases: co-IP; whole lysates of transfected HEK cells (30 min, 4°C, HEPES buffer, 1% Lubrol or 1% TritonX-100); antibody 1 h 4°C, ProteinG-Sepharose 1 h; Western blot
[1] = biological target: ZO-1 (human (endogenous in HEK293)) (UniProt Q07157)
[2] = biological target: T1, CD166 (human (endogenous in HEK293)) (UniProt Q13740)
T1 sequence: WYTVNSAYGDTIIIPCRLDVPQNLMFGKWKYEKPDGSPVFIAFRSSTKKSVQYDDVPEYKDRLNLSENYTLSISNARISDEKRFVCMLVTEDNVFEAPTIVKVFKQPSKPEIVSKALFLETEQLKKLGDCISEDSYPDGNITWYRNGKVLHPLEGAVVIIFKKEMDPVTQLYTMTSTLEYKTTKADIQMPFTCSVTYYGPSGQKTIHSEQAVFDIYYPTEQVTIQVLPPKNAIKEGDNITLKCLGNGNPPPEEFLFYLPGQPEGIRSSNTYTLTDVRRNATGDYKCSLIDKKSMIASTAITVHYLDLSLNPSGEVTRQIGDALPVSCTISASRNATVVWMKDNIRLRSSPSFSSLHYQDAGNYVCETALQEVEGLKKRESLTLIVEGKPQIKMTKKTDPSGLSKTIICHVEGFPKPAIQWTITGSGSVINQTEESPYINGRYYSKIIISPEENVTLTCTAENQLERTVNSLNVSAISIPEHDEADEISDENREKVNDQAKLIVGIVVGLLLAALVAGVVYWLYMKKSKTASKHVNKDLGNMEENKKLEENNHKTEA

[3] = biological target: CD49e (human (endogenous in HEK293)) (UniProt P08648)
[4] = biological target: T2, ZO-1 (human (endogenous in HEK293)), Q07157; details: remark: other sources report otherwise
T2 chain: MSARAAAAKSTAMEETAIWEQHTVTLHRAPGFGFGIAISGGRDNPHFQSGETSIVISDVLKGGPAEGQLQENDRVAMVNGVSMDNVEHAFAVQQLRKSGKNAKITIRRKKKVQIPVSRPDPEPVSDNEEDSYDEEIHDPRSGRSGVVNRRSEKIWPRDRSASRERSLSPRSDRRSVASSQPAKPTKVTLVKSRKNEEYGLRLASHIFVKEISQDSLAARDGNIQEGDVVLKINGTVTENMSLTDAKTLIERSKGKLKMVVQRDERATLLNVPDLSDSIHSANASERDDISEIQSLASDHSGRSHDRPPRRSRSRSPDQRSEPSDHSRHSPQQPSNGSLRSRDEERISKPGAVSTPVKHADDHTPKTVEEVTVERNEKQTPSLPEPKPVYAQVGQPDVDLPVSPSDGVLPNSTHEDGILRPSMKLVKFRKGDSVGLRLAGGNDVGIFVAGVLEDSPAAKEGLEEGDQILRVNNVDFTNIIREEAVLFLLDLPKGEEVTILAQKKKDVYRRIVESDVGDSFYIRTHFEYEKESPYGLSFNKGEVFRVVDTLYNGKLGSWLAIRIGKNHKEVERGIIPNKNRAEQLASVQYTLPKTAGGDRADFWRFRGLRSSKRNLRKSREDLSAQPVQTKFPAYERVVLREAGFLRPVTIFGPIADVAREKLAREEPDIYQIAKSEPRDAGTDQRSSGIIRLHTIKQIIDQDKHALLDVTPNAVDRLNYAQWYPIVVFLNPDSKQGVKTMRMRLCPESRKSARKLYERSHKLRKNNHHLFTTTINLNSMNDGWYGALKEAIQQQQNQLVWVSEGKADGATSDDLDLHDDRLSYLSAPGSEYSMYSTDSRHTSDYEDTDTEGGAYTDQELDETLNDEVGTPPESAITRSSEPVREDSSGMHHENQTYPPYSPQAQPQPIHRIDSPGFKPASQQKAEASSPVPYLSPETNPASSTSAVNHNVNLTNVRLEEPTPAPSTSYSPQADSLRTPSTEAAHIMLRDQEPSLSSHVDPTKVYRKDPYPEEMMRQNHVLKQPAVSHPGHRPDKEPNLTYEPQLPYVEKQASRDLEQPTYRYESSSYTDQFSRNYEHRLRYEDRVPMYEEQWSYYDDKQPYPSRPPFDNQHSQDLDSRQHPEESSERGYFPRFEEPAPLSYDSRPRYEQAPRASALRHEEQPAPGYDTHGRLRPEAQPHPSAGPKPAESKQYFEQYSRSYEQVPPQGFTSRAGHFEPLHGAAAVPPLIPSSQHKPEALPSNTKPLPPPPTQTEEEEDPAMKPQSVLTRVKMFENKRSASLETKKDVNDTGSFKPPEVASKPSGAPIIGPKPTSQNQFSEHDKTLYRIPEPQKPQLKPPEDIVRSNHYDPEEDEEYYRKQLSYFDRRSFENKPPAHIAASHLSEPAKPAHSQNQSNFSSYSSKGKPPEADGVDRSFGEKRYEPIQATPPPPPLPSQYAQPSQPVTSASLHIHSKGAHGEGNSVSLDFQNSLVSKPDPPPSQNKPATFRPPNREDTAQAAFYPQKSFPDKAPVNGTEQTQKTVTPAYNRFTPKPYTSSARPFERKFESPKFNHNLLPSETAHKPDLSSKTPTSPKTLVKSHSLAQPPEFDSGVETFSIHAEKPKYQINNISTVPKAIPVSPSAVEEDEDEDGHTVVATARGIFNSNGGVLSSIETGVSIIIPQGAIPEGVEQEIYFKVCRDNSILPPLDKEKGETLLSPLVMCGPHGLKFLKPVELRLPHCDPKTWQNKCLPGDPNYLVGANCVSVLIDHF

In the case of cld3 (from UniProt O15551 1-220), the binding [1] is reported as “binds”.

ezrin (from UniProt P15311 1-586) was tested, and the binding [2] was “binds” and the binding [3] was “binds”.

B1: cld4, O14493 1-209 (protein)
chain: MASMGLQVMGIALAVLGWLAVMLCCALPMWRVTAFIGSNIVTSQTIWEGLWMNCVVQSTGQMQCKVYDSLLALPQDLQAARALVIISIIVAALGVLLSVVGGKCTNCLEDESAKAKTMIVAGVVFLLAGLMVIVPVSWTAHNIIQDFYNPLVASGQKREMGASLYVGWAASGLLLLGGGLLCCNCPPRTDKPYSAKYSAARSAAASNYV
With B1 the binding [4] was “binds”.
